# Laboratory results: PMC5055354
# These are yes or no findings as the source states them, for the method shown. In cells and extracts the contact can be indirect. A result given as binding can be weak or reduced; the word gives no strength. Sequences can lack the tags named with a protein.
# Target: T1, STING-HA (HA-tagged Stimulator of interferon genes) (UniProt Q3TBT3)
# T1 sequence: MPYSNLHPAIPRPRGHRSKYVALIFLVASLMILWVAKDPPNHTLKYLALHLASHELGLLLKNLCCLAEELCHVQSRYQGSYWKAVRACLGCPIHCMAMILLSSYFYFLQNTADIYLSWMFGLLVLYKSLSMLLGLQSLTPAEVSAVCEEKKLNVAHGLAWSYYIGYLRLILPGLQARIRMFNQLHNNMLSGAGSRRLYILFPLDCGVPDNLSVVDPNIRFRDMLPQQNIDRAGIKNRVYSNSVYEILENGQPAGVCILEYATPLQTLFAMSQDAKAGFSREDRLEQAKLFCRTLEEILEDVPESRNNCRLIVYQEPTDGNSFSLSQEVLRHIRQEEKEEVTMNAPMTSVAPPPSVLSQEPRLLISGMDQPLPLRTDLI
# Experiment: co-IP; 293T cells transfected with V5-tagged TRAF2, TRAF3 or TRAF6 and CD40-DDK/Myc, STING-HA or both; whole-cell extract precipitated with anti-Myc or anti-HA magnetic beads; blotted with anti-V5 (TRAFs), anti-HA (STING) or anti-Myc (CD40)
row,binding,Substance
1,binds,V5-tagged TRAF6 (TNF receptor associated factor 6)
2,binds,V5-tagged TRAF3 (TNF receptor associated factor 3)
